# Test results: article PMC6687534
# By UniProt entry, the sequences of proteins in these tests, tags left out.
# UniProt Q9UKT9: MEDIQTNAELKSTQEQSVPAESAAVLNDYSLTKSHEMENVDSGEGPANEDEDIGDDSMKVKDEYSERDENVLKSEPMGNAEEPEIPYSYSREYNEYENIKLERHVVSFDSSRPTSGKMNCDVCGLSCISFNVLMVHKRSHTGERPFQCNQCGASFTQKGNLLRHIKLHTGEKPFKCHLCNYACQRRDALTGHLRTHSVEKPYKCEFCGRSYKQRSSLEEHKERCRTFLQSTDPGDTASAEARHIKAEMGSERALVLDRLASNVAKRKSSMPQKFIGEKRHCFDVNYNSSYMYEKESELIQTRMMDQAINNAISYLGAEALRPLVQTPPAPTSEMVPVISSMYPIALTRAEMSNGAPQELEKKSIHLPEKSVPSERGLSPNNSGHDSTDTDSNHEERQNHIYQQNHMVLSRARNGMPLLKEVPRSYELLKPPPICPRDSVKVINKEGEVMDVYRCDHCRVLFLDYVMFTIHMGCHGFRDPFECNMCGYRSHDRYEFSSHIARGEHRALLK
# UniProt Q13761: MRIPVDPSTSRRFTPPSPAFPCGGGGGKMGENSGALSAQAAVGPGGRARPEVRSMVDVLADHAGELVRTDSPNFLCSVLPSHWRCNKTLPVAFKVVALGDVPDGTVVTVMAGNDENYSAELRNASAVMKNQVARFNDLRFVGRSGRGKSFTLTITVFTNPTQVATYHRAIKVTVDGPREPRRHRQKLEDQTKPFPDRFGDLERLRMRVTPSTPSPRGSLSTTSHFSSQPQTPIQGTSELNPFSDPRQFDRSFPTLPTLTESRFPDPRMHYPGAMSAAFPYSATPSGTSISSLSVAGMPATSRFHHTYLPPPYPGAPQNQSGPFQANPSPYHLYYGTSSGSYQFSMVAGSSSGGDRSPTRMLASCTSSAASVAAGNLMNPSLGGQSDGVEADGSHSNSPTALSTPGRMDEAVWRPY
# UniProt Q13951: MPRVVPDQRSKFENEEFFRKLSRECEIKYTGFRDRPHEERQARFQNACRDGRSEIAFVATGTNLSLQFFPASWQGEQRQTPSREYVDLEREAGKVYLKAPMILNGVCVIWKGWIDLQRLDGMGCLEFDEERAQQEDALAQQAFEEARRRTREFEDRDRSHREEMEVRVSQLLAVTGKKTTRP
# These are yes or no findings as the source states them, for the method shown. In cells and extracts the contact can be indirect. Here binding means that the protein was enriched with, or labelled near, the bait; the list need not be complete.
# Target: FLAG-tagged human IKZF3, stably expressed in myeloma cells (human) (UniProt Q9UKT9)
# Experiment: affinity purification with mass spectrometry; anti-FLAG affinity purification from ARP-1 cells stably expressing FLAG-IKZF1 or FLAG-IKZF3, from nuclear extract (nucleoplasm) or benzonase-extracted detergent-insoluble fraction (DNA-bound); FLAG-peptide eluates, MudPIT; relative to cells infected with an empty virus
row,binding,Substance
1,binds,endogenous RUNX3 of myeloma cells (from UniProt Q13761 1-415)
2,binds,endogenous CBFβ of ARP-1 cells (from UniProt Q13951 1-182)
3,binds,endogenous RUNX1 of myeloma cells (from UniProt Q01196 1-453)
